From article PMC12521514
No constants are given. Whether binding was seen depends on the method and setting. Some binding calls cover weakened binding; strength is not graded here.

Target: T1, Staphylococcus aureus ClpP wild type (Staphylococcus aureus), Q2G036
T1 chain: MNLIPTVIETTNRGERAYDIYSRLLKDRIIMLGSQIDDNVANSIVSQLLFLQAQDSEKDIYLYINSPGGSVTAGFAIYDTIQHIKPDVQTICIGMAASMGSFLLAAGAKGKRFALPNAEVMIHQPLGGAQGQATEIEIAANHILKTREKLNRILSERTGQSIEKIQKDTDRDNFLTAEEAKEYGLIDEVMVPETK
Details: remark: other sources report otherwise

binding: binds
B1: Staphylococcus aureus ClpP wild type, Q2G036 1-195 (enzyme)
chain: MNLIPTVIETTNRGERAYDIYSRLLKDRIIMLGSQIDDNVANSIVSQLLFLQAQDSEKDIYLYINSPGGSVTAGFAIYDTIQHIKPDVQTICIGMAASMGSFLLAAGAKGKRFALPNAEVMIHQPLGGAQGQATEIEIAANHILKTREKLNRILSERTGQSIEKIQKDTDRDNFLTAEEAKEYGLIDEVMVPETK
